Results deposited as PubChem BioAssay AID1259308 (NCATS, 2017).
Screen: 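Candidate targets for better recombinant protein yield in mammalian cells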 (primary screen). Cell system: human HEK293 embryonic kidney cells stably expressing firefly luciferase (HEK-CMV-Luc2-Hygro). Reagent: single siRNA against human genes, 0.8 pmol siRNA per well. Time to read-out: 72 h. Measurement: 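Luciferase light (ONE-Glo) measured on one replicate plate set and viability (CellTiter-Glo) on the other, scaled to a negative control siRNA, with robust z-scores and luciferase per cell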. Reading the numbers: total luciferase, z-score: higher = more reporter protein produced. Hit rule: 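Active when the median/MAD z-score for overall luciferase is greater than 3; a gene was taken forward for validation with new siRNAs if at least two of its three siRNAs passed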. Calls: active = raised luciferase; inactive = no rise.
This is one part, drawn at random, of about 59,000 reagents. About 1,510 of them (2.6%) were called active. 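Calls use total luciferase alone and ignore viability, so some active siRNAs may act by altering cell number.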 Reagents against one gene are numbered here. Further read-outs or replicates are left out here.

| total luciferase, z-score | Call | gene symbol | siRNA no. |
| --- | --- | --- | --- |
| 0.492 | inactive | CLDN15 (claudin 15) | 1 |
| 3.9 | active | CLDN15 (claudin 15) | 2 |
| 1.83 | inactive | CLDN15 (claudin 15) | 3 |
| 0.491 | inactive | GOLGA6L7 (golgin A6 family like 7) | 1 |
| 0.781 | inactive | GOLGA6L7 (golgin A6 family like 7) | 2 |
| 1.58 | inactive | GOLGA6L7 (golgin A6 family like 7) | 3 |
| 0.667 | inactive | GOLGA6L7 (golgin A6 family like 7) | 4 |
| 2.41 | inactive | GOLGA6L7 (golgin A6 family like 7) | 5 |
| 1.51 | inactive | GOLGA6L7 (golgin A6 family like 7) | 6 |
| 3.64 | active | H3C8 (H3 clustered histone 8) | 1 |
| 1.08 | inactive | H3C8 (H3 clustered histone 8) | 2 |
| -0.217 | inactive | H3C8 (H3 clustered histone 8) | 3 |
| -1.02 | inactive | INCENP (inner centromere protein) | 1 |
| -1.16 | inactive | INCENP (inner centromere protein) | 2 |
| -2.08 | inactive | INCENP (inner centromere protein) | 3 |
| -0.733 | inactive | RAI14 (retinoic acid induced 14) | 1 |
| -0.0284 | inactive | RAI14 (retinoic acid induced 14) | 2 |
| 1.56 | inactive | RAI14 (retinoic acid induced 14) | 3 |
| -2.24 | inactive | MAMDC2 (MAM domain containing 2) | 1 |
| 0.83 | inactive | MAMDC2 (MAM domain containing 2) | 2 |
| 0.381 | inactive | MAMDC2 (MAM domain containing 2) | 3 |
| 0.309 | inactive | GSTA3 (glutathione S-transferase alpha 3) | 1 |
| -1.64 | inactive | GSTA3 (glutathione S-transferase alpha 3) | 2 |
| 1.81 | inactive | GSTA3 (glutathione S-transferase alpha 3) | 3 |
| -0.504 | inactive | NSUN5P2 (NSUN5 pseudogene 2) | 1 |
| -3.14 | inactive | NSUN5P2 (NSUN5 pseudogene 2) | 2 |
| 0.708 | inactive | NSUN5P2 (NSUN5 pseudogene 2) | 3 |
| -1.38 | inactive | UBL7 (ubiquitin like 7) | 1 |
| -0.4 | inactive | UBL7 (ubiquitin like 7) | 2 |
| 1.83 | inactive | UBL7 (ubiquitin like 7) | 3 |
| 0.234 | inactive | DLGAP3 (DLG associated protein 3) | 1 |
| -0.468 | inactive | DLGAP3 (DLG associated protein 3) | 2 |
| 0.513 | inactive | DLGAP3 (DLG associated protein 3) | 3 |
| 0.256 | inactive | ATP6AP1 (ATPase H+ transporting accessory protein 1) | 1 |
| -1.61 | inactive | ATP6AP1 (ATPase H+ transporting accessory protein 1) | 2 |
| 1.97 | inactive | ATP6AP1 (ATPase H+ transporting accessory protein 1) | 3 |
| 0.0936 | inactive | RIN2 (Ras and Rab interactor 2) | 1 |
| -0.888 | inactive | RIN2 (Ras and Rab interactor 2) | 2 |
| -0.751 | inactive | RIN2 (Ras and Rab interactor 2) | 3 |
| 1.58 | inactive | ACOT8 (acyl-CoA thioesterase 8) | 1 |
| -0.0635 | inactive | ACOT8 (acyl-CoA thioesterase 8) | 2 |
| -0.00712 | inactive | ACOT8 (acyl-CoA thioesterase 8) | 3 |
| -2.61 | inactive | LINC01120 (long independently transcribed non-coding RNA 1120) | 1 |
| 0.401 | inactive | LINC01120 (long independently transcribed non-coding RNA 1120) | 2 |
| 1.05 | inactive | LINC01120 (long independently transcribed non-coding RNA 1120) | 3 |
| 0.547 | inactive | TMEM167B (transmembrane protein 167B) | 1 |
| -1.14 | inactive | TMEM167B (transmembrane protein 167B) | 2 |
| 1.53 | inactive | TMEM167B (transmembrane protein 167B) | 3 |
| -0.299 | inactive | PDX1 (pancreatic and duodenal homeobox 1) | 1 |
| 1.99 | inactive | PDX1 (pancreatic and duodenal homeobox 1) | 2 |
| 1.67 | inactive | PDX1 (pancreatic and duodenal homeobox 1) | 3 |
| -1.06 | inactive | CCNP (cyclin P) | 1 |
| 0.326 | inactive | CCNP (cyclin P) | 2 |
| 0.341 | inactive | CCNP (cyclin P) | 3 |
| 0.408 | inactive | AKR1D1 (aldo-keto reductase family 1 member D1) | 1 |
| -0.0351 | inactive | AKR1D1 (aldo-keto reductase family 1 member D1) | 2 |
| 1.58 | inactive | AKR1D1 (aldo-keto reductase family 1 member D1) | 3 |

Ordered by “total luciferase, z-score” (ascending): 6 of the entries above
| total luciferase, z-score | Call | gene symbol | siRNA no. |
| --- | --- | --- | --- |
| -2.08 | inactive | INCENP (inner centromere protein) | 3 |
| -1.16 | inactive | INCENP (inner centromere protein) | 2 |
| -1.02 | inactive | INCENP (inner centromere protein) | 1 |
| -0.733 | inactive | RAI14 (retinoic acid induced 14) | 1 |
| -0.217 | inactive | H3C8 (H3 clustered histone 8) | 3 |
| 1.08 | inactive | H3C8 (H3 clustered histone 8) | 2 |
